Results are given in words; binding and its absence hold for the method and conditions named. Some entries that bind do so weakly or less than the wild type.
Biological target: CD40L (UniProt P29965)
Assay: ELISA, 0.2 µg CD40L per well, expression lysate, anti-HA-HRP, OD 450 nm compared with anti-CD40L 2.2

Protein sequences, listed by entry. Tags and fused reporters are not part of them. Residues count along the entry.
UniProt P29965, residues 113-261: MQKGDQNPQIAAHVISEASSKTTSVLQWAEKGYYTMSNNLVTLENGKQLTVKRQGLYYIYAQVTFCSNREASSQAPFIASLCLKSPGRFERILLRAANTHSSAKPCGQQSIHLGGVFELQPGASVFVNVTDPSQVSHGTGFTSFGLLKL

For CRPNQFTCGNGHCLPRTWLCDGVPDCQDSSDETPIPCKSSVPTSLQ (designed binder) [pmA2_84], which binding is on record?
Its binding is “binds”.

B1: A5C1 (designed binder)
chain: CQSSQFRCRDNSTCLPLRLRCDGVNDCRDGSDESPALCGRPGPGATSAPAASLQ
Which binding does the source give for B1 here?
The binding was “binds”.

B2: pmA2_18 (designed binder)
chain: CPADQFQCKNGSCIPRPLRCDGVEDCADGSDEGQDCGRPGPGATSAPAASLQ
How did the binding turn out when B2 was run?
The binding was “binds”.

For CARDGEFRCAMNGRCIPSSWVCDGEDDCGDGSDESQVYCGGGGSLQ (designed binder) [pmA5_79], which binding is on record?
Its binding is “binds”.

With CLPSQFPCQNSSICVPPALVCDGDADCGDDSDEASCAPPGSLSLQ (designed binder) [A2F10] as the binder, how does the binding read?
The binding was “binds”.

CAPGEFTCGNGHCLSRALRCDGDDGCLDNSDEKNCPQRTSLQ (designed binder) [A1E9] was tested. Which binding did it give?
Its binding is “binds”.

CLANECTCDSGRCLPLPLVCDGVPDCEDDSDEKNCTKPTSLQ (designed binder) [pmA11_40] was tested. Which binding did it give?
Its binding is “binds”.

Source: patent publication US20050053973A1
